From patent US20050003420
Changes are numbered by the printed parent chain. For some of these results: No signal at the amounts used counts as a negative. For some of these results: Where a protein sequence is shown, tags need not be part of it. For some of these results: The comparison behind a weaker result is the experiment's own reference, which may not be listed here. For some of these results: For at least one entry, the source does not settle the construct or the ends of the probe.

By UniProt entry, the sequences of proteins in these tests, tags left out. Where a name states a change or a piece, a line headed by the entry shows the natural chain unless it says otherwise.
UniProt P23657: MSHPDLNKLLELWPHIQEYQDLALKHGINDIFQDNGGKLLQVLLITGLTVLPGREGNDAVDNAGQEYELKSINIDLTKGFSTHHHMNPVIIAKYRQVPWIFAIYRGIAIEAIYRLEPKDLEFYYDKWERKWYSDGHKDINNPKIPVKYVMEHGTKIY

Assays:
Experiment in all cases: enzyme reaction in vitro
PvuII wild type = PvuII wild type (UniProt P23657); conditions: not detectable, data not shown; purified recombinant protein; only the site is given
PvuII K93R = PvuII K93R (UniProt P23657); conditions: NEB buffer 2, 37 C, 1.5 h; purified recombinant protein; protein details: His-tag; only the site is given
[1] = target: T1, BsoBI pseudorevertant 8d N36K/D246A (UniProt P70985); conditions: pZZ1; purified recombinant protein; protein details: partially purified; only the site is given
T1 sequence (looked up, limits assumed): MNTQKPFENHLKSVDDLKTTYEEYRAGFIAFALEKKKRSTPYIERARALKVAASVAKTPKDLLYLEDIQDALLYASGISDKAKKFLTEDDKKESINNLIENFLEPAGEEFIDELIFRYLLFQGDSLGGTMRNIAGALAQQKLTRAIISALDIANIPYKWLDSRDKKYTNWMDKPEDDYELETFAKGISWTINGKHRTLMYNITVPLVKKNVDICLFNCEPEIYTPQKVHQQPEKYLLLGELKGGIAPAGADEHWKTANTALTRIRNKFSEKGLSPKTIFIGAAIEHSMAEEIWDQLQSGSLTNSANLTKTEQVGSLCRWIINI

[2] = target: T2, BsoBI pseudorevertant 29e D246A/C317W (UniProt P70985); conditions: pZZ1; purified recombinant protein; only the site is given
T2 sequence (looked up, limits assumed): T1 sequence (looked up, limits assumed) with K36N, C317W

BsoBI D246A = target: T3, BsoBI D246A (UniProt P70985); conditions: purified recombinant protein, only the site is given
T3 sequence (looked up, limits assumed): T1 sequence (looked up, limits assumed) with K36N

BsoBI D246T = target: T4, BsoBI D246T (UniProt P70985); conditions: purified recombinant protein, only the site is given
T4 sequence (looked up, limits assumed): T1 sequence (looked up, limits assumed) with K36N, A246T

BsoBI D246C = target: T5, BsoBI D246C (UniProt P70985); conditions: purified recombinant protein, only the site is given
T5 sequence (looked up, limits assumed): T1 sequence (looked up, limits assumed) with K36N, A246C

BsoBI M130A/D246A = target: T6, BsoBI M130A/D246A (UniProt P70985); conditions: pZZ1, purified recombinant protein, only the site is given
T6 sequence (looked up, limits assumed): T1 sequence (looked up, limits assumed) with K36N, M130A

[3] = target: T7, BsoBI restriction endonuclease (UniProt P70985); conditions: cleaved with almost equal efficiency to CCCGGG on pZZ1; purified recombinant protein; only the site is given
T7 sequence (looked up, limits assumed): T1 sequence (looked up, limits assumed) with K36N, A246D

[4] = target: T8, BsoBI pseudorevertant 9c (same as 11c) R38S/L62I/D112Y/N169T/L238F/D246A/A248S (UniProt P70985); conditions: pZZ1; purified recombinant protein; only the site is given
T8 sequence (looked up, limits assumed): T1 sequence (looked up, limits assumed) with K36N, R38S, L62I, D112Y, N169T, L238F, A248S

[5] = target: BsoBI pseudorevertant 6c E46V/D61E/S94T/D246A (UniProt P70985); conditions: pZZ1; purified recombinant protein; protein details: partially purified; only the site is given
BsoBI D246S = target: T9, BsoBI D246S (UniProt P70985); conditions: purified recombinant protein, only the site is given
T9 sequence (looked up, limits assumed): T1 sequence (looked up, limits assumed) with K36N, A246S

CAATTG (double strand) [pTYB1 1270 bp PCR fragment, MfeI site]
activity on this sequence (PvuII wild type): not active | activity on this sequence (ug protein required to cleave) (PvuII K93R): > 10

GTGCTCGAGGGG (double strand) [pZZ1 CTCGAG site]
activity on this sequence [1]: active | activity on this sequence [2]: not active | activity on this sequence (BsoBI D246A; pZZ1, CCCGGG cleaved at least 64 times faster): not active | activity on this sequence (BsoBI D246T; not cleaved efficiently): less active | activity on this sequence (BsoBI D246C; cleaved at higher enzyme concentration): less active | activity on this sequence (BsoBI M130A/D246A; only CCCGGG cleavage detected): not active | activity on this sequence [3]: active | activity on this sequence [4]: not active | activity on this sequence [5]: active | activity on this sequence (BsoBI D246S; not cleaved efficiently): less active

CACTGT (double strand) [pTYB1 1270 bp PCR fragment, PmlI site]
activity on this sequence (PvuII wild type): not active | activity on this sequence (ug protein required to cleave) (PvuII K93R): > 10

GTACCCGGGGAT (double strand) [pUC19/pZZ1 CCCGGG site]
activity on this sequence (BsoBI D246A; pUC19, 65 C, two preparations): less active | activity on this sequence (BsoBI D246T; about 4-fold lower activity than D246A): active | activity on this sequence (BsoBI D246C; cleaved first at low enzyme concentration): active | activity on this sequence (BsoBI M130A/D246A): active | activity on this sequence (BsoBI D246S; activity comparable to D246A, preferential CCCGGG cleavage): active
